# Screening data, single-dose tests

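Growth of Mycobacterium tuberculosis over 4 days (cholesterol / DPPC medium with tyloxapol); the read-out is not stated. Compounds at 50 µM. Direction is inferred from retests: higher values go with more growth inhibition. Size under these conditions: about 69,000 compounds, about 370 of them at 50% or above in at least one test.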

Results are given as percent effect. The record does not define 0% and 100%; most values in the screen are far below 50% and negative numbers occur (in some assays of this library far below -100). Compounds were drawn at random from those tested, without regard to their results. Two or more numbers in one place are separate tests of the same structure; such repeats can differ widely.

compound,percent effect
CCc1ccc2c(C3CN(CC4CCC4)C3)ncn2c1.O=C(O)C(F)(F)F,18.35
CC(C)c1nc(CN(C)C(=O)CNC(N)=O)cs1,5.203
Cc1ncc(CNC2CC(=O)N(CCc3ccc(F)cc3)C2)n1C (centres undefined),-5.663
COc1cc(C2CC(=O)Oc3cc(C)[nH]c(=O)c32)ccc1OC(F)F (centres undefined),-19.61
O=C1NC[C@]2(CC[C@@H](C(=O)N3CCCC(O)C3)CC2)Oc2ccccc21 (some centres undefined),10.91
Cn1cc(-c2cnc(N3CCCC3)nc2)cc1C(=O)O,0.5873 & 6.164
Cc1nc(CN(C)CC2CCCN2c2cccnn2)nc2ccccc12 (centres undefined),25.98
CN1CC(=O)N(c2ccsc2)CC12CCN(C(=O)c1cccn1C)C2.O=C(O)C(F)(F)F (centres undefined),-13.05
COc1ccc(Cl)cc1C(=O)NC(CC(=O)O)c1cccs1 (centres undefined),-20.7
Cc1cccc(-c2ccc(C(=O)NCC3CCCOC3)c(=O)[nH]2)c1 (centres undefined),-10.27
COC[C@]1(O)CCN(C2CCN(c3ccc(OC)cc3)CC2)CC1(C)C,-12.81
CC(C)Cc1nc(CSCC(=O)N2CCC(C)CC2)no1,19.21
CN1CCN(c2ccc(F)cc2NC(=O)NCc2ccon2)CC1,20.82
Cc1cc(C)n(CC(=O)N2CCC(c3ccn4nccc4n3)CC2)n1,2.855 & -15.5
CC(C)N1CCC(Cc2cncc(-c3cccc(C(=O)O)c3)n2)C1 (centres undefined),8.954
O=C(O)C(F)(F)F.O=C(O)C(F)(F)F.[H][C@@]12CN(Cc3ccoc3)C[C@]1([H])C(=O)N(Cc1ccncc1)C2,-11.5
CN(CCNc1cc(N2CCCC2CO)ncn1)Cc1ccccc1 (centres undefined),-36.01
CC(=O)N[C@@H]1CN(S(=O)(=O)Cc2ccccc2)C[C@H]1C(C)C,9.217
CC(C)Oc1ccc(CSc2nnc(CN3CCCC3=O)o2)cc1,56.34
[H][C@]12CC[C@]([H])(CN(c3ccnc(SC)n3)C1)N(CC1CCC1)C2=O,-38.94
CCc1ccc(C2CCCCCN2Cc2nc(CCOC)no2)o1 (centres undefined),19.79
CN(Cc1ccccc1)C(=O)CCN1CCC2(CC1)[C@H](O)C[C@@H]2O,16.68
COCc1cc(NCCc2ccc(S(N)(=O)=O)cc2)n2nccc2n1,13.19
Cn1cc(-c2nc(C(=O)N3CCCC3c3cnn(C)c3)cs2)cn1 (centres undefined),5.588
CC(Nc1cccc2c1OCCO2)C(=O)NC(N)=O (centres undefined),-6.82
CCC[C@@H]1CN(Cc2ccccc2-c2ccco2)C[C@H]1NC(C)=O,-11.91
CN(C)c1ccc(CNC(=O)NCCc2ccccn2)cn1,-12.64
O=C(O)C(F)(F)F.[H][C@@]12C[C@@H](C(=O)NC(C)C)C[C@@]1([H])N(Cc1ccsc1)CCO2,9.207
CCC[C@@H]1CN(Cc2cnc(-c3cccs3)nc2)C[C@H]1C(=O)O,5.14
Fc1cccnc1N1CCOCC2(CCCN(c3nncs3)C2)C1.O=C(O)C(F)(F)F (centres undefined),2.831
Cn1cc(CN2CCC(CCC(=O)NC3CC3)CC2)cn1,-4.502
CN1CCN(Cc2ccc(Cl)cc2)CC1C(=O)O (centres undefined),-0.05195
CCOc1ccccc1CC(=O)N1C[C@H](C2CC2)[C@@H](N)C1,-8.226
CC(C)(NC(=O)Cc1ccccc1F)C(=O)O,-21.63
COCCOCC(=O)N1CCC(c2ccccc2F)C1 (centres undefined),-15.39
c1cnn(CC2CCCCN2c2ncnc3sccc23)c1 (centres undefined),-5.361
CSc1ncc(C(=O)N2C[C@@H](NC(C)=O)[C@H](c3ccc(C)cc3)C2)cn1,-3.909
Cc1cn2c(=O)c(-c3ccnc(N[C@@H](C)CO)n3)cnc2s1,-18.95
Cc1nc2cc(-c3nccn3C)nn2c(N2CCCC(CO)C2)c1C (centres undefined),6.661 & -10.71
COc1cc(C(C)=O)ccc1SCC(=O)Nc1ccc(C)cn1,2.347
Cc1noc(CCCC(=O)NCC(c2ccco2)N2CCCCC2)n1 (centres undefined),-14
Cn1cnc2c1CCN(Cc1csc(-c3ccsc3)n1)C2,-21.03
CCCc1nc(C(C)(C)NC(=O)C2CC(=O)N(CCOC)C2)no1 (centres undefined),-3.017
CNC(=O)c1cccc(CN2CCC(N(C)Cc3ncc(C)o3)C2)c1 (centres undefined),-19.2
Cn1cnc2c1CCN(Cc1cccc(OCC(N)=O)c1)C2,1.704
O=C(O)C(F)(F)F.[H][C@]12CCN(S(=O)(=O)c3cccs3)C[C@@]1([H])OCCN(C)C2,3.674
Cn1cc(CCNC(=O)NC2CCS(=O)(=O)C2)cn1 (centres undefined),-7.139
Cc1ccc(C(=O)NCCCN(C)S(C)(=O)=O)c(=O)[nH]1,-14.13
CN(Cc1cc2n(n1)CCNC2)Cc1noc(C2CCC2)n1,-19.95
Cc1cc(CN2CCC(CNS(=O)(=O)c3c(C)noc3C)CC2)c(C)o1,-15.93
O=C1NCCCC12CCN(Cc1ccc(SC3CCCCC3)o1)C2 (centres undefined),-0.002975
[H][C@]12CC[C@]([H])(CN(C(C)=O)C1)N(C(=O)c1cccnc1SC)C2,-0.8337 & 12.85

For reference, 5 entries once more:

Result for Cn1cc(-c2nc(C(=O)N3CCCC3c3cnn(C)c3)cs2)cn1 (centres undefined) was 5.588%.
Result for O=C1NCCCC12CCN(Cc1ccc(SC3CCCCC3)o1)C2 (centres undefined) was -0.002975%.
Result for O=C(O)C(F)(F)F.[H][C@@]12C[C@@H](C(=O)NC(C)C)C[C@@]1([H])N(Cc1ccsc1)CCO2 was 9.207%.
Result for Cn1cnc2c1CCN(Cc1csc(-c3ccsc3)n1)C2 was -21.03%.
Result for CN1CCN(Cc2ccc(Cl)cc2)CC1C(=O)O (centres undefined) was -0.05195%.

The values are deposited in ChEMBL (CHEMBL3988442, “University of Dundee, Small-Polar-MMV Screening Library” (2021)).